From ChEMBL document CHEMBL3988442, “University of Dundee, Small-Polar-MMV Screening Library” (2021).

Chains of the proteins cited; added tags and fusions are not shown.
UniProt E9BF75, entry or part of it: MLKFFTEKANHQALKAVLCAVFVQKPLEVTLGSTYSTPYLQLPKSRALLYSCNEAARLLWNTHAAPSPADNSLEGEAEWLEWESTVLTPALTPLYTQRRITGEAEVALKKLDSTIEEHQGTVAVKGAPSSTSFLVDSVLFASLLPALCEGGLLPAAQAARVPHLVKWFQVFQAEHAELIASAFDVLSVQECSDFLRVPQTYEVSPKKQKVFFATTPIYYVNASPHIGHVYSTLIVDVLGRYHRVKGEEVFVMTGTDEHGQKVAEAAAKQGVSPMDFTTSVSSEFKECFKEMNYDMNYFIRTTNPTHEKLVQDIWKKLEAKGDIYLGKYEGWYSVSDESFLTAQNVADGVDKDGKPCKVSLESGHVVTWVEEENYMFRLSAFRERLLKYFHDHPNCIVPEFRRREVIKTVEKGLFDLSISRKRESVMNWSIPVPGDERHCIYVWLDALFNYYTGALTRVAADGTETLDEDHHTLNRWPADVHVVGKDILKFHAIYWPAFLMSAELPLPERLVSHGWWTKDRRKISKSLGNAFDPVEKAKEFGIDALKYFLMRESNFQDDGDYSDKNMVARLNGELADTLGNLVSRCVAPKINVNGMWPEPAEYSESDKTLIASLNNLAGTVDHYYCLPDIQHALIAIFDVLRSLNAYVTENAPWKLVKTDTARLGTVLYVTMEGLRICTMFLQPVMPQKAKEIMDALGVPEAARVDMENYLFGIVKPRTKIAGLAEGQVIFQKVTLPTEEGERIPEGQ

Results are percentages, as filed. How 0% and 100% were set is not recorded. Most values in the screen are low, and negative values occur. Compounds were drawn at random from those tested, without regard to their results.

Mtb heat-shock: 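Assay on Mycobacterium tuberculosis, filed only as a heat shock assay from Cornell; the read-out is not stated. The concentration is filed as 10 mM, unlikely as a test dose, so the dose is not known. Higher reads as stronger inhibition (inferred: compounds with an IC50 in retests scored well above the rest). Of about 69,000 compounds tested this way, about 930 (1.4%) reached 50% or more in at least one test.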
LdMetRS: 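Primary screen of methionyl-tRNA synthetase; the read-out is not stated. Target: Methionyl-tRNA synthetase (putative), Leishmania donovani (UniProt E9BF75). The test concentration is not given. Values are per cent inhibition. Size under these conditions: about 68,000 compounds, about 24 of them at 50% or above in at least one test.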
Mtb growth Cornell: 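Whole-cell assay for inhibitors of Mycobacterium tuberculosis growth, labelled Cornell in the record; the read-out is not stated. The concentration is filed as 10 mM, unlikely as a test dose, so the dose is not known. Higher means stronger inhibition (inferred from two other growth screens of the library). About 53,000 compounds were tested under these conditions; 1.7% (about 900) showed 50% or more at least once.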

{"structure": "Cc1nn(C)c(C)c1CCC(=O)OCC(=O)N1CCc2sccc2C1", "Mtb heat-shock": -30.42, "LdMetRS": 1.375, "Mtb growth Cornell": -1.821}
{"structure": "Cc1ccsc1-c1nnc(SCC(=O)O)n1C(C)c1ccccc1", "stereo": "centres undefined", "Mtb heat-shock": -8.661, "LdMetRS": 2.688, "Mtb growth Cornell": 33.34}
{"structure": "[H][C@@]12CN(S(=O)(=O)c3ccccc3)C[C@@]1([H])N(CC1CC1)C(=O)CO2", "Mtb heat-shock": -4.794, "Mtb growth Cornell": 23.67}
{"structure": "Cc1n[nH]c(C2CN(C(=O)c3cc(Cl)c[nH]3)CCO2)n1", "stereo": "centres undefined", "Mtb heat-shock": 0.9483, "LdMetRS": 15.49, "Mtb growth Cornell": 1.824}
{"structure": "COCCc1ncc(-c2c(C#N)c(N)nc3c2CCc2[nH]ccc2-3)cn1", "Mtb heat-shock": 4.148, "LdMetRS": 9.408, "Mtb growth Cornell": 24.11}
{"structure": "CN(Cc1cccc(C(F)(F)F)c1)Cc1nc(-c2cnccn2)no1", "Mtb heat-shock": -15.33, "LdMetRS": 8}
{"structure": "CS(=O)(=O)N[C@@H]1CCO[C@]2(CCN(C(=O)c3cnccn3)C2)C1", "Mtb heat-shock": 9.518, "LdMetRS": 20.54, "Mtb growth Cornell": 2.61}
{"structure": "CCOc1ccc(C(=O)CC(SC2CCCCC2)C(=O)O)cc1", "stereo": "centres undefined", "Mtb heat-shock": 28.66, "LdMetRS": 9.704, "Mtb growth Cornell": 39.23}
{"structure": "Cc1nc(COC[C@@]23CCC[C@@H]2CN(Cc2cnn(C)c2)C3)cs1", "LdMetRS": 7.792}
{"structure": "COC(=O)c1ccc(N2CCN(C(=O)C3CCC3)C(C)C2)cc1", "stereo": "centres undefined", "Mtb heat-shock": -55.75, "LdMetRS": 12.93, "Mtb growth Cornell": -4.692}
{"structure": "COCCn1ccc2c(C(=O)NCC3CCCO3)cccc21", "stereo": "centres undefined", "Mtb heat-shock": -6.4, "LdMetRS": 16.43, "Mtb growth Cornell": 13.47}
{"structure": "Cc1noc([C@H]2C[C@H]3OCC[C@H]3N(Cc3cccs3)C2)n1", "LdMetRS": 18.73}
{"structure": "Fc1ccccc1CN1C[C@@H]2OCCN(c3ncccn3)[C@@H]2C1", "LdMetRS": 7.302}
{"structure": "CCO[C@@H]1CO[C@@]2(CCCN(S(=O)(=O)c3cccnc3)C2)C1", "LdMetRS": 10.73}
{"structure": "O=C(c1ccc(Cl)cc1)N1CCC(N2CCCNC2=O)CC1", "Mtb heat-shock": 2.32, "LdMetRS": 10.29}
{"structure": "Cc1nc2c(c(N3CCC(O)(CN4CCCC4)CC3)n1)CCN(C)CC2", "Mtb heat-shock": -11.06, "LdMetRS": 9.804, "Mtb growth Cornell": -1.227}
{"structure": "O=C(NCC1(O)CCC1)c1cccc(-n2cccn2)c1", "Mtb heat-shock": 8.452, "LdMetRS": 8.065, "Mtb growth Cornell": 19.77}
{"structure": "O=C(O)C(F)(F)F.O=C(O)C(F)(F)F.[H][C@@]12CN(Cc3cnn(C)c3)CCO[C@]1([H])CN(C1CCCC1)C2", "Mtb heat-shock": -1.928, "Mtb growth Cornell": 17.01}
{"structure": "Cc1nc(CN2CCCC(N(C)Cc3cnn(C)c3)C2)no1", "stereo": "centres undefined", "Mtb heat-shock": -39.68, "LdMetRS": 10.78, "Mtb growth Cornell": -13.85}
{"structure": "CCOCC1CN(C(=O)COc2ccccc2C)Cc2ncn(C)c21.O=C(O)C(F)(F)F", "stereo": "centres undefined", "Mtb heat-shock": -45.02, "Mtb growth Cornell": 35.97}
{"structure": "COc1ccc(CNCC(C)Oc2ccccn2)cc1Br", "stereo": "centres undefined", "LdMetRS": 11.2}
{"structure": "CCNC(=O)c1ccnc(N2CCCC(COc3ccccc3C)C2)c1", "stereo": "centres undefined", "Mtb heat-shock": -1.28, "LdMetRS": 15.33}
{"structure": "CC(=O)N1CCC(N2CCOC[C@H]2c2nc(-c3ccncc3)c[nH]2)CC1", "Mtb heat-shock": -29.44, "LdMetRS": 8.475, "Mtb growth Cornell": 7.093}
{"structure": "O=C(O)C(F)(F)F.[H][C@@]12CCN(c3ccncn3)C[C@]1([H])O[C@@H](C(=O)NCc1ccco1)C2", "Mtb heat-shock": 9.893, "Mtb growth Cornell": 27.11}
{"structure": "CCc1noc(C2CCCCN2C(=O)c2ccn(C3CCCC3)n2)n1", "stereo": "centres undefined", "Mtb heat-shock": -4.28, "LdMetRS": 7.884}
{"structure": "CCn1ccnc1C1CCN(C(=O)C(O)c2ccc(OC)cc2)CC1", "stereo": "centres undefined", "Mtb heat-shock": -9.3, "LdMetRS": 9.804, "Mtb growth Cornell": -0.8012}
{"structure": "Cn1cc(Br)c(C(=O)NCCn2cc(Br)cn2)n1", "Mtb heat-shock": 10.09, "LdMetRS": 13.65, "Mtb growth Cornell": 8.473}
{"structure": "CCc1nc(CN(C(C)=O)C2CCN(Cc3cnc(C)cn3)C2)no1", "stereo": "centres undefined", "Mtb heat-shock": 4.691, "LdMetRS": 5.164, "Mtb growth Cornell": -47.61}
{"structure": "Cc1csc(CNC(=O)NCCc2ccc3c(c2)OCCO3)n1", "Mtb heat-shock": -13.58, "LdMetRS": 9.722}
{"structure": "CCOC1CCN(C(=O)c2cc(-c3ccc(Cl)cc3)on2)CC1", "Mtb heat-shock": 22.31, "LdMetRS": 9.922, "Mtb growth Cornell": 20.4}
{"structure": "COc1ccccc1C(=O)N1CCNCC1C(N)=O", "stereo": "centres undefined", "LdMetRS": 14.6}
{"structure": "CC(C)CN1C(=O)C2(CCN(Cc3nccs3)C2)c2ccccc21", "stereo": "centres undefined", "LdMetRS": 15.24}
{"structure": "COc1ccc(CN(CC2CCCO2)C(=O)CN2CCCCC2=O)cc1", "stereo": "centres undefined", "Mtb heat-shock": -8.45, "LdMetRS": 15.66, "Mtb growth Cornell": 3.728}
{"structure": "CC(C)CCn1cc(C(C(=O)O)N2CCC(N3CCSCC3)CC2)cn1", "stereo": "centres undefined", "Mtb heat-shock": 8.14, "LdMetRS": 10.7}